Data as given in patent publication US20260152777A1, “METHOD FOR PRODUCING EPIGALLOCATECHIN GALLATE MONOGLUCOSIDE” (GIVAUDAN SA, priority 2022, published 2026).

Tested on: Bacillus sp.
Assay: Consumption of EGCG MONOG by Bacillus sp. (HPLC-UV-MS)
Conditions: for concentration in Bacillus sp. culture (HPLC) / Variation over 48 h of concentration in Bacillus sp. culture: medium with 1% of purified preparation from Example 1

| SMILES | concentration in Bacillus sp. culture (HPLC) (Time 24 h) | concentration in Bacillus sp. culture (HPLC) (Time 27 h) | concentration in Bacillus sp. culture (HPLC) (Time 30 h) | concentration in Bacillus sp. culture (HPLC) (Time 48 h) | concentration in Bacillus sp. culture (HPLC) (Time 54 h) | concentration in Bacillus sp. culture (HPLC) (Time 72 h) | detection in Bacillus sp. culture (after 24 hours, culture with EGCG MONOG) | Variation over 48 h of concentration in Bacillus sp. culture |
| --- | --- | --- | --- | --- | --- | --- | --- | --- |
| O=C(O[C@@H]1Cc2c(O)cc(O)cc2O[C@@H]1c1cc(O)c(O)c(O)c1)c1cc(O)c(O)c(O)c1 [EGCG aglycone, epigallocatechin gallate] | 0.009 nM | 0.035 nM | 0.038 nM | 0.013 nM | 0.006 nM | 0.002 nM | could not be detected | -0.005 nM |
| O=C(O[C@@H]1Cc2c(O)cc(O)cc2O[C@@H]1c1cc(O)c(O[C@H]2O[C@H](CO)[C@@H](O)[C@H](O)[C@H]2O)c(O)c1)c1cc(O)c(O)c(O)c1 [epigallocatechin gallate 4′-O-α-monoglucoside] | 0.751 nM | 0.678 nM | 0.614 nM | 0.443 nM | 0.434 nM | 0.288 nM | – | -0.307 nM |
